# Reference: PubChem BioAssay AID504834 (National Center for Advancing Translational Sciences (NCATS), 2011)
# Screen size: about 320,000 compounds; about 22,000 (6.9%) were called active. The shares of active, inactive and inconclusive entries below differ from those in the screen. Calls come from the whole dose curve; as a rule, active = well fitted inhibition curve with a large enough effect; inconclusive = small, poorly fitted or top-dose-only effect, or another doubt; inactive = no such curve, though single readings can be large or run the other way. Where the call is inconclusive, the potency comes from a doubtful curve fit.
# Assay: Primary qHTS for delayed death inhibitors of the malarial parasite plastid, 96 hour incubation
# Settings: P. falciparum luciferase reporter growth; series mostly up to 28.7 µM; activity change, negative = inhibition: at the top concentration
# In short: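 Two-generation exposure (96 h) targets delayed-death phenotype. Reporter parasites carrying integrated firefly luciferase, in red cells at 2% hematocrit and 0.05% parasitemia final, kept at 37 C, 5% CO2; luminescence loss indicates inhibition.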
# % is set by controls: 0 for no effect and ±100 for the full control effect; potency is the fitted concentration of half-maximal effect.
SMILES,"activity change, negative = inhibition",Potency
Cc1nccc(-c2cc(-c3ccc(Cl)cc3Cl)no2)n1,inactive: 345%,
CN(C)CCOC1c2ccccc2-c2ccccc21,,"inconclusive: 9.28 µM [inhibitor, partial curve, poor fit]"
COc1ccccc1C(=O)NC(=O)OCCn1c(C)cnc1[N+](=O)[O-],,active: 9.28 µM
COc1ccc(S(=O)(=O)NCc2ccc3c(c2)OCO3)cc1C(=O)O,,"inconclusive: 14.7 µM [inhibitor, single point]"
O=[N+]([O-])c1ccc(NC(=S)N2CCN(c3ccc(F)cc3)CC2)cc1,inactive: 32.2%,
O/N=C/c1cc(Br)cs1,,"inconclusive: 18.5 µM [inhibitor, partial curve, poor fit]"
O=C1[C@H]2[C@@H](c3ccc(Cl)cc3)N3C(=O)N(c4cccc(Br)c4)C(=O)[C@@]3(Cc3ccc(Cl)cc3)[C@H]2C(=O)N1C1CCCCC1,,active: 11.7 µM
COC(=O)c1cc2ccsc2n1Cc1nc(-c2cccc(Cl)c2)oc1C,,active: 4.15 µM
O=S(=O)(c1ccc2oc(=S)[nH]c2c1)N1CCOCC1,,active: 8.28 µM
CC1CC(C)CN(C(=O)CSc2nnc(-c3ccc(Cl)s3)o2)C1 (centres undefined),,"inconclusive: 18.5 µM [inhibitor, single point]"
O=C(NCC1CCN(Cc2cccc(Cl)c2)CC1)Nc1ccc(Cl)cc1,inactive: 5.51%,
Cc1ccnc(NS(=O)(=O)c2ccc(NC(=O)c3oc4ccccc4c3C)cc2)n1,,"inconclusive: 4.15 µM [inhibitor, single point]"
COc1cccc(CNC(=O)Nc2cccs2)c1,,"inconclusive: 6.57 µM [inhibitor, partial curve, poor fit]"
CCCn1c(CCC(=O)Nc2ccccc2Cc2ccccc2)nc2cc(S(=O)(=O)N3CCOCC3)ccc21,,active: 2.33 µM
CCN(Cc1cc(=O)[nH]c2ccccc12)C(=O)c1ccc(C)cc1,inactive: 13.4%,
O=C(CCc1ccccc1)Nc1nc2n(n1)C(c1ccccc1)CC(=O)N2 (centres undefined),,"inconclusive: 18.5 µM [inhibitor, single point]"
COc1ccccc1/C=N/NC(=O)c1cccc(NC(=O)c2ccccc2Cl)c1,,"inconclusive: 18.5 µM [inhibitor, single point]"
CCn1nc(C)c(CN2CCN(Cc3ccsc3)C(CCO)C2)c1C (centres undefined),,"inconclusive: 13.1 µM [inhibitor, single point]"
O=C(c1c(Cl)nc2sccn12)N1CCN(c2cccc(Cl)c2)CC1,inactive: -1.52%,
CCn1c(SCc2ccccc2Cl)nc2nc3c(cc2c1=O)CCCC3,,"inconclusive: 11.7 µM [inhibitor, single point]"
O=C(c1ccco1)N1CCN(c2cccc(Cl)c2)CC1,,"inconclusive: 0.0657 µM [inhibitor, full curve, poor fit]"
COc1ccc(C2NC3=C(CCC3)C3(C#N)C4(N=C(N)C23C#N)OCCO4)cc1 (centres undefined),,"inconclusive: 10.4 µM [inhibitor, partial curve, poor fit]"
Cc1ccc(C2NC(c3ccc(C)cc3)C(C)C(=O)C2C)cc1 (centres undefined),,"inconclusive: 11.7 µM [inhibitor, single point]"

SMILES,"activity change, negative = inhibition",Potency
CCN(CC(=O)Nc1ccc(Cl)c(S(=O)(=O)N(C)C)c1)Cc1nc2ccccc2c(=O)[nH]1,,"inconclusive: 0.185 µM [inhibitor, full curve]"
NS(=O)(=O)c1ccc(N=Nc2ccc(O)c3ncccc23)cc1,,"inconclusive: 10.4 µM [inhibitor, single point]"
C=CCNC(=O)CC(C)C(CCCCC)C(=O)O (centres undefined),,"inconclusive: 0.657 µM [inhibitor, full curve, poor fit]"
COc1ccc(NC(=O)Cn2nnc(C(=O)NCc3cccs3)c2N)cc1Cl,inactive: 4.93%,
CCNC(=O)c1ccc(NC(=O)CC2SC(N3CCCCC3)=NC2=O)cc1 (centres undefined),inactive: 0.505%,
Cc1nc(C(=O)NCc2ccccc2)sc1C1(C)CC(c2ccccc2)=NO1 (centres undefined),,"inconclusive: 18.5 µM [inhibitor, single point]"
Cc1ccc2c(CC(=O)NCC3(N4CCOCC4)CCCCC3)coc2c1C,,active: 9.28 µM
COc1ccccc1N1CCN(C(=O)C2c3ccccc3Oc3ccccc32)CC1,,"inconclusive: 18.5 µM [inhibitor, single point]"
CSc1cccc(NC(=O)Nc2ccccc2C(N)=O)c1,,"inconclusive: 0.0033 µM [inhibitor, full curve, poor fit]"
CC1Cc2ccccc2N1C(=O)CN1CCC(n2nnc3cc(C(F)(F)F)ccc32)CC1 (centres undefined),,"inconclusive: 18.5 µM [inhibitor, single point]"
Cc1cccc(OCC(=O)Nc2ncn[nH]2)c1C,inactive: 108%,
CCc1ccc2[nH]c(=O)c(C3C(C#N)=C(N)Oc4c3ccc3cccnc43)cc2c1 (centres undefined),,"inconclusive: 11.7 µM [inhibitor, single point]"
O=C(c1ccc([N+](=O)[O-])o1)N(Cc1nnc(-c2ccccc2Cl)o1)C1CC1,,"inconclusive: 3.29 µM [inhibitor, partial curve]"
Cc1cc(C)nc(-n2nc(C)cc2NC(=O)CN2CCC(C)CC2)n1,,active: 2.33 µM
O=[N+]([O-])c1ccc(/C=N/N2CCN(c3ccncc3S(=O)(=O)N3CCCCC3)CC2)cc1,,active: 4.15 µM
O=C(Nc1cccc(Br)c1)c1c(O)c2c(n(Cc3ccccc3)c1=O)CCCC2,,"inconclusive: 18.5 µM [inhibitor, partial curve, poor fit]"
O=C(Nc1ccn(Cc2c(F)c(F)cc(F)c2F)n1)c1cccc(Cn2cc([N+](=O)[O-])cn2)c1,,active: 9.28 µM
Cc1cc(C)nc(-n2nc(C)cc2NC(=O)CNC(C)c2ccccc2)n1 (centres undefined),inactive: -7.3%,
CC1CCN(S(=O)(=O)c2ccc(S(=O)(=O)NCc3ccco3)cc2)CC1,inactive: -27.6%,
COc1ccc(-c2cnc(N)n2C)cc1,,"inconclusive: 2.94 µM [inhibitor, partial curve, poor fit]"
Cc1ccc(C(=O)c2cc([N+](=O)[O-])ccc2N2CCOCC2)cc1,inactive: -12.8%,
O=C(COc1coc(CN2CCN(c3ccccc3)CC2)cc1=O)NC1CCCCC1,,"inconclusive: 18.5 µM [inhibitor, single point]"
O=C(C1CC1)N1N=C(c2ccc(Cl)cc2)CC1(O)C(F)(F)F (centres undefined),inactive: 32.4%,

# Some of these compounds in order of count of non-hydrogen atoms, ascending.
SMILES,"activity change, negative = inhibition",Potency
COc1ccc(-c2cnc(N)n2C)cc1,,"inconclusive: 2.94 µM [inhibitor, partial curve, poor fit]"
C=CCNC(=O)CC(C)C(CCCCC)C(=O)O (centres undefined),,"inconclusive: 0.657 µM [inhibitor, full curve, poor fit]"
O=C(C1CC1)N1N=C(c2ccc(Cl)cc2)CC1(O)C(F)(F)F (centres undefined),inactive: 32.4%,
CC1CCN(S(=O)(=O)c2ccc(S(=O)(=O)NCc3ccco3)cc2)CC1,inactive: -27.6%,
Cc1ccc2c(CC(=O)NCC3(N4CCOCC4)CCCCC3)coc2c1C,,active: 9.28 µM

# Next entries.

SMILES,"activity change, negative = inhibition",Potency
COc1ccc(CC2(CO)CCN(S(=O)(=O)c3cccc4cccnc34)CC2)cc1,,active: 11.7 µM
COC(=O)C1=C(c2ccc(-c3ccccc3)c(F)c2)C[C@@H]2CC[C@H]1N2C(=O)NCCCOC(C)C,,"inconclusive: 13.1 µM [inhibitor, partial curve]"
CCCCn1c(SCC(=O)Nc2nnc(C)s2)nc2c1c(=O)n(C)c(=O)n2C,,"inconclusive: 8.28 µM [inhibitor, partial curve]"
Cc1ccc(C(=O)NCCNS(=O)(=O)c2ccccc2[N+](=O)[O-])cc1,inactive: -0.794%,
O=C(Nc1ncccc1O)c1cccc(S(=O)(=O)N2CCN(c3ccc(F)cc3)CC2)c1,,"inconclusive: 5.22 µM [inhibitor, partial curve]"
Cc1cccc(OCC(=O)OC(C)CN2CCCCC2)c1 (centres undefined),,"inconclusive: 18.5 µM [inhibitor, single point]"
CCOc1ccc(C2(C)NC(=O)N(CCN(C)C)C2=O)cc1 (centres undefined),,"inconclusive: 2.33 µM [inhibitor, full curve]"
CC(C)CN(CCNC(=O)CN1N=C(c2ccc(Cl)cc2)CCC1=O)CC(C)C,inactive: 27.9%,
Cc1nn(CCOc2cccc(Br)c2)c(C)c1[N+](=O)[O-],inactive: 62.1% [at 5.75 µM],
CN(Cc1ccccc1)C(=O)CCNS(=O)(=O)c1ccc2c(c1)oc(=O)n2C,,"inconclusive: 0.586 µM [inhibitor, full curve, poor fit]"
CC1(C(=O)NC2CCCCCCC2)CCC(=O)N1Cc1cccs1 (centres undefined),,"inconclusive: 14.7 µM [inhibitor, partial curve, poor fit]"
COc1ccc(NC(=O)C2C3C=CC4(O3)C2C(=O)N(CCN2CCCCC2C)C4C(=O)NC2CCCCC2)cc1 (centres undefined),,"inconclusive: 13.1 µM [inhibitor, single point]"
CC(=O)Nc1ccc(NC(=O)CCC(=O)OCC(=O)c2cccc([N+](=O)[O-])c2)cc1,,"inconclusive: 10.4 µM [inhibitor, single point]"
Cn1cc(CN(CCO)Cc2cccs2)c(-c2cccc(Cl)c2)n1,,"inconclusive: 18.5 µM [inhibitor, single point]"
Cc1ccc(-c2nc(N)c3c(-c4ccc(C)cc4)nn(C(C)(C)C)c3n2)cc1,,"inconclusive: 1.85 µM [inhibitor, partial curve, poor fit]"
O=S1(=O)CCOC[C@H](CC2CCCCC2)N1Cc1ccc(Cl)cc1,,"inconclusive: 18.5 µM [inhibitor, single point]"
CCOC(=O)C1=C(C)OC(N)=C(C#N)C1c1ccsc1 (centres undefined),inactive: -11.1%,
O=C(Cn1nnc(-c2ccccc2NC(=O)c2ccco2)n1)Nc1ccccc1,,"inconclusive: 2.33 µM [inhibitor, partial curve, poor fit]"
COCC(C)N1CCC(n2nccc2NC(=O)c2ccc3c(c2)OCO3)CC1 (centres undefined),inactive: -20.2%,
O=C(CCCN1C(=O)c2cccnc2Oc2ccc(Cl)cc21)N1CCCCC1,,active: 13.1 µM
O=C(Nc1nc2ccccc2[nH]1)c1ccc(Br)o1,inactive: 256%,
CCOc1ccc(-c2nc(C#N)c(NCc3ccc4c(c3)OCO4)o2)cc1,,active: 8.28 µM
COc1cc(C(CC(=O)N2CCOCC2)c2c(OC)cc(OC)c3ccc(=O)oc23)cc(OC)c1OC (centres undefined),,"inconclusive: 10.4 µM [inhibitor, partial curve, poor fit]"
